Measured data: PubChem BioAssay AID1671195 (Yale University, 2021)

Purpose: 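Knockdowns that increase or decrease uptake of fluorescent LDL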 (primary screen)
Cells: human Huh7 hepatoma cells
Reagent: siRNA pool against human genes, 18 nM
Timing: about 2 to 2.5 days of knockdown, then 8 h LDL uptake
Challenge: DiI-labelled LDL at 30 µg/ml for 8 h, in lipoprotein-deficient serum medium
Read-out: 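Per-cell DiI-LDL intensity by automated imaging; well means scaled to the plate median and given as a robust z-score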
Scale: robust z-score: higher = more LDL uptake after knockdown
Hit rule: 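Active when two or more replicates show a robust z-score above 2 or below -2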
In all, the deposit lists about 22,000 reagents; this is a part drawn at random. Of all reagents, about 1,510 (6.9%) are marked active. 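Active includes knockdowns raising or lowering LDL uptake; positive z-scores mean more uptake, negative mean less.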 A number with no mark means an inactive call.

no.	gene	robust z-score, replicate 1	robust z-score, replicate 2	robust z-score, replicate 3
1	CD33	0.587	0.359	0.68
2	ZNRF1	0.93	0.711	0.768
3	LOC388295 (retired record)	-0.7	-0.965	-0.915
4	ETV5	2.99 (active)	2.42	2.9
5	NRG1	1.29	-0.997	0.333
6	FAF2	-0.302	2.15	-0.903
7	RCAN1	2.32	1.28	1.61
8	LOC442225	2.97 (active)	2.57	2.28
9	GBP7	-0.976	-0.997	-0.986
10	DCLK3	0.667	0.0634	-0.6
11	DBN1	0.764	-1.29	0.0801
12	IL1R2	-0.414	-1.55	-0.892
13	ESRP1	0.221	-0.116	-0.0475
14	LOC401098 (retired record)	0.32	0.293	1.17
15	TEKT5	0.771	0.943	2.2
16	SLC31A2	-0.286	-0.168	-0.89
17	ZNF140	-1.01	-0.717	-0.776
18	SKAP2	0.43	2.25	1.67
19	TREML2	3.22 (active)	2.86	3.25
20	B4GALT4	1.13	-0.00357	0.836
21	PRDM4	0.347	-0.00646	-0.138
22	SEC62	0.00752	-0.0329	-0.162
23	AP1AR	-2.05	-1.78	-1.58
24	RPL6	-1.78	-1.3	-1.84
25	CYB561A3	2.06	1.19	1.89
26	SCGB1D4	-0.115	0.525	-0.359
27	CD93	-1.03	-1.25	-1.03
28	FLJ12120 (retired record)	-0.97	-0.715	-1.28
29	MIB1	0.397	-1.3	-1.33
30	TMEM39A	0.134	-0.701	-1.46
31	KRT8	-0.23	0.588	0.25
32	ZNF544	0.73	0.873	1.12
33	CTSS	0.567	-0.35	-0.469
34	RNF180	0.981	1.69	1.12
35	HLA-DRB5	-0.547	-1.94	-0.826
36	FGF20	-2.21 (active)	-2	-1.99
37	SRD5A1	1.17	1.45	1.12
38	PFDN4	-1.03	-0.0989	-0.841
39	KITLG	0.108	-0.149	0.182
40	MAZ	0.0699	0.361	-0.0955
41	OR10T2	0.534	0.651	1.58
42	PDGFRA	0.716	0.369	1.64
43	OVAAL	1.54	0.674	1.12
44	LOC388814 (retired record)	-2.01 (active)	-2.19	-2.17
45	CPA3	1.56	1.45	1.14
46	SNX24	0.262	-1.06	0.336
47	DHX37	-0.833	-0.0552	-0.541
48	G2E3	-0.69	-0.31	-1.81
49	LOC286129 (retired record)	-0.176	-0.493	-0.968
50	CORO2A	1.13	0.674	2.51
51	FAM156A	1.72	1.14	2.15
52	YWHAG	-1.19	-1.59	-0.96
53	LOC389831	0.438	0.906	0.701
54	ZDHHC18	-0.0906	-0.386	-0.308
55	TRIM37	0.243	1.17	2.44
56	TSPAN3	-0.0949	-0.629	-0.515
57	ATP6V1A	0.553	0.49	1.09
58	PRKCE	1.35	-0.257	1.1
59	ZBTB37	-0.00143	-1.03	-0.43
60	ULK4	-0.173	-0.0109	-0.851
61	DEFB107A	-0.672	-0.881	-0.662
62	ENTR1P1	-0.196	-0.627	-0.407
63	LOC441802 (retired record)	-0.96	-0.902	-0.774
64	LOC283804	2.42 (active)	2.6	2.29
65	DNASE2B	-1.65	-1.63	-1.92
66	TPGS1	-1.07	-0.0666	-0.0306
67	PDK3	0.984	1.59	1.08
68	SLC1A1	-0.536	-0.259	-0.255
69	ZNF782	0.881	0.128	0.276
70	RHCE	0.937	-0.0915	0.568
71	TNFSF4	0.13	-0.3	0.199
72	GCHFR	0.562	0.715	1.68
73	SLC16A14	1.37	1.71	1.62
74	EFEMP1	-2.26 (active)	-1.86	-1.5
75	ACTR6	1.05	0.754	0.715
76	KIAA0408	0.142	1.83	0.128
77	KLF7	-0.302	-0.198	0.0619
78	GPR15	-2.06	0.0419	0.412
79	HOXA4	-0.701	-0.0672	0.01
80	LOC399866 (retired record)	0.551	0.964	0.888
81	C4orf17	-1.08	-1.34	-1.13
82	ULK3	-0.883	-0.739	-1.4
83	SHLD2P3	-0.855	-1.2	-1.53
84	OR2B3	-0.86	-0.479	-0.498
85	LOC400567 (retired record)	-0.752	-0.00321	-0.259
86	LOC440976 (retired record)	-0.75	-0.341	-0.13
87	ISOC2	-0.972	-1.26	-0.952

Looked up above.
Under “robust z-score, replicate 1”, FAF2 is entered as -0.302
ACTR6, robust z-score, replicate 3 → 0.715
ETV5, robust z-score, replicate 3: 2.9 (active)
LOC388814 (retired record), robust z-score, replicate 1 → -2.01 (active)
Under “robust z-score, replicate 2”, LOC440976 (retired record) has -0.341
DHX37, robust z-score, replicate 3 → -0.541
